## Percent effect of library compounds

Results are given as percent effect. How 0% and 100% were set is not recorded. Most values in the screen are low, and negative values occur. The compounds are a random part of those screened. Two or more numbers in one place are separate tests of the same structure; such repeats can differ widely.

Mtb cholesterol medium: 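Growth of Mycobacterium tuberculosis over 4 days (cholesterol / DPPC medium with tyloxapol); the read-out is not stated. Compounds at 50 µM. The record gives no direction; compounds that gave an IC50 in retests scored well above the rest, so higher reads as more growth inhibition. About 69,000 compounds were tested under these conditions; 0.54% (about 370) showed 50% or more at least once.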
Mtb glucose medium: 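Growth of Mycobacterium tuberculosis over 3 days (7H9 medium with glucose and tyloxapol); the read-out is not stated. Tested at 50 µM. Higher reads as more growth inhibition (inferred: compounds with an IC50 in retests scored well above the rest). Of about 69,000 compounds tested this way, about 760 (1.1%) reached 50% or more in at least one test.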

compound | Mtb cholesterol medium | Mtb glucose medium
COc1ccccc1OCC(=O)NS(=O)(=O)c1ccc(Cl)s1 | -13.32% | -2.758%
CC1CCN(S(=O)(=O)NC2CCCCNC2=O)CC1 (stereo not drawn) | 0.5087% | 16.99%
COCCN(C/C=C/c1ccccc1)Cc1ncc[nH]1 | 4.968% | 6.796%
CC(=O)N(Cc1ncc(C)o1)C1CCN(Cc2cccc(C#N)c2)C1 (stereo not drawn) | 27.64% | 21.8%
COc1cccc(N2CC3(CCN(C(=O)NC(C)C)C3)CC2=O)c1 (stereo not drawn) | -7.555% | -31.86%
Cc1cnn(CC2CCCCN2C(=O)c2ccc3[nH]c(=O)[nH]c3c2)c1 (stereo not drawn) | 1.142% | 2.293%
Cc1c(C(=O)NC2CC(C)(C)NC(C)(C)C2)cnn1-c1ccc(F)cc1 | -16.18% | 9.617%
CCC(Nc1nc(C(C)C)nc2c1cnn2C)c1ccncc1 (stereo not drawn) | -15.62% | -4.621%
Cc1ccc(NCc2cncc3c2CCN(C(=O)C2CC=CC2)C3)nn1.Cl | 32.99% | 21.25%
COc1ccc2c(c1)OC1(CCN(Cc3ccc(C)cc3)CC1)CC2=O | 18.49% | -11.63%
NC1(c2nc(-c3ccccc3)cc(=O)[nH]2)CCCC1 | -9.553% | -31.47% and 0.8318%
O=C([C@@H]1CCCO1)N1CCn2c(Cn3cccn3)cnc2C1 | -20.58% | -7.651%
CNS(=O)(=O)CC(=O)NC(c1cc(C)sc1C)C(C)C (stereo not drawn) | 13.17% | -13.85%
CCc1cccc(OC2CN(C(=O)[C@@H](N)CCSC)C2)c1 | -13.08% | -22.77%
Cn1ncc2c(NCC3CCCN3c3cccnn3)ncnc21 (stereo not drawn) | -11.63% | 0.4592%
CS(=O)(=O)N1CCC(OCCCc2ccccc2)C1 (stereo not drawn) | 6.745% | 20.12% and 2.779%
O=C(O)C(F)(F)F.[H][C@@]12CCCO[C@]1([H])[C@H](NC(=O)c1cscn1)CN2 | -1.655% | -16.33%
CSc1nccn1-c1cccc(C(=O)NCCC(=O)NC(C)C)c1 | -3.066% | -11.53%
COCCC1(CO)CCCN(C(=O)c2ccc(C(C)C)[nH]c2=O)C1 (stereo not drawn) | 10.27% | 19.78%
CN1CCCN(c2nc(C3CC3)ns2)CC1 | 6.573% and 8.053% | -32.52%
Cc1ccc(CN2CC[C@@H](NC(=O)c3cccnc3)[C@H](O)C2)o1 | -4.691% | 2.614%
N#CCSCCCN1CCN(C(=O)c2cccc(Cl)c2)CC1 | 1.31% | 1.214%
O=C(c1csc(-c2ncccn2)n1)N1CCCC1Cn1cccn1 (stereo not drawn) | -5.705% | -6.777%
O=C(NCCc1ccsc1)c1ccoc1 | -48.77% | -14.16%
O=C(Cc1ccncc1)N1CCC2(CC1)CC(c1ccccc1)CO2.O=C(O)C(F)(F)F (stereo not drawn) | -16.16% | 30.45%
N#Cc1cc(NC(=O)c2ccsc2)ccc1N1CCC(O)CC1 | 18.96% | 17.41%
[H][C@@]12CCN(C[C@@H]1CC)[C@@H](CNC(=O)Nc1cccc(C(F)(F)F)c1)C2 | 6.497% | 7.124% and 7.076%
Cl.Cn1cc(CN(Cc2ccccc2)Cc2ccccn2)cn1 | -12.93% | -35%
CC(=O)c1c(F)cccc1NC1CCN(S(=O)(=O)C2CC2)CC1 | -13.2% and -4.718% | 14.11%
O=C(c1ccc(Cn2ccccc2=O)o1)N1CCSCC1 | -1.095% | -3.243%
Cc1nc2n(n1)CC(NCC(=O)NCC1(c3ccccc3)CC1)CC2 (stereo not drawn) | 5.037% | -2.856%
CCN(CC)C(=O)CN1CCc2nc(C3CCNCC3)nc(NC)c2C1.Cl | 15.16% | -11.57%
CN(C)C(C)(C)CNCc1c[nH]nc1-c1cc2ccccc2o1 | -9.188% | -17.85%
CN1CCN(S(=O)(=O)N2CCCCC2CCc2ccc(O)cc2)CC1 (stereo not drawn) | -16.51% | -3.836% and -12.18%
Nc1cc(CCC2CN(Cc3cccc(C(=O)O)c3)CCO2)ccn1 (stereo not drawn) | -6.75% | 25.54%
O=C(Cc1ccon1)N1CCc2cc(Br)sc2C1 | -8.712% and -33.89% | -2.378%
CN1C(=O)C2(CCN(c3ncccc3C(=O)O)CC2)c2ccccc21 | -9.696% | -9.487%
c1cc2c(cc1CN1CCCC3(CCOC3)C1)OCO2 (stereo not drawn) | 10.16% | -6.633%
CCCc1cc(C(=O)NC(C)c2ccccc2)n(C)n1 (stereo not drawn) | 15.55% and 3.339% | -25.96%
COc1cccc(O)c1CN1CCCC(Nc2cccc(F)c2)C1 (stereo not drawn) | 18.55% | 2.563% and 20.21%
CCC(CNC(=O)Nc1cnn(CC)c1)N1CCc2ccccc2C1 (stereo not drawn) | -2.878% | -15.72%
CCN(CC)C1CCN(C(=O)c2cc(CC(C)C)nn2CC)C1 (stereo not drawn) | -8.039% | -22.06%

From ChEMBL document CHEMBL3988442, “University of Dundee, Small-Polar-MMV Screening Library” (2021).